PubChem BioAssay AID1347423 (Functional Genomics Laboratory (NCATS/FGL), 2020)
About 210 (0.4%) of roughly 52,000 sequences were called active.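 Rule for the calls: active = gene whose silencing raises cell survival under the drug, median off-target-corrected z-score across its silencing RNAs 2 or more; inactive = the rest.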 The list shows a part of the results.

experiment: Resistance to Poly (ADP-Ribose) Polymerase inhibitor: Gene Identification via Genome-wide siRNA Screen; conditions: mouse BRCA2 R2336H ES cells, olaparib, CellTiter-Glo viability; active compounds read high
Summary of the method: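 Genome-wide siRNA screen (3 siRNAs/gene, 20 nM) in mouse ES cells carrying hypomorphic BRCA2 R2336H; olaparib 500 nM added 48 h post-transfection, CellTiter-Glo viability 72 h later. Normalized to plate-median negative control; MAD z-scores, gene median, seed-adjusted.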

Sequence | z-score
GGGAACAGAAGUCAAGAGATT against LOC406217 | inactive: 1.06
CCAUUCUUAUUGUUGAGAATT against Nek9 | inactive: -0.576
GCAUUCCUCAUACUUACUGTT against Olfr671 | inactive: 0.491
GCUCUUUAUCCUAAUCCGGTT against 2310075G12Rik | inactive: 0.366
GGCCCUUCAGCAGAAAAAUTT against Pcoln3 | inactive: -0.776
GCUAUGCAGUGACCACACUTT against C130046B21Rik | inactive: -0.738
GGAGAAAGAGCCUUUAAGGTT against 1200003C23Rik | inactive: 0.703
GACCUACAAGAAGUUCGGCTT against Nkx2-4 | inactive: 1.1
GGUGGCACUGAUGGAAUUGTT against Hsd17b12 | inactive: 0.273
GCCUUCUUAAGCUCUGAGCTT against 2610209N15Rik | inactive: -0.853
CCAAUUAGUCACUCUUAGATT against 1300002F13Rik | inactive: -0.202
GGAGAGAAUCAGAGAGAACTT against Akr1c18 | inactive: 0.067
GGAUAAAAACUACAAAGAGTT against Tyki | inactive: 1.06
GGAUCAAACACAAUCCUAATT against V1rd7 | inactive: -0.474
GGUGUGUGAGAUUAAAAGCTT against 9130231C15Rik | inactive: 0.827
GGGCAUACAUAUAACCUAUTT against Plekhc1 | inactive: 0.785
GCCAUCUACUCUUUAAAUATT against Pdha1 | inactive: -0.502
GGGAAAGUGUUCUCACUCATT against Zfp111 | inactive: 1.08
CGAACUAAGCCAAUCUCUGTT against Pcdha2 | inactive: -0.561
GGCAAUGCACUUAUAACUCTT against Olfr118 | inactive: 1.29
GGAGCACCAGAGUUAAAACTT against Lu | inactive: 1.22
CGUGGUCGUGAGAUGUUUGTT against 3110023E09Rik | inactive: 0.604
CCUGAUUGACGACAGUAAGTT against Mcrs1 | inactive: 0.351
CCCUAGUUUGAAUGUAAUATT against Npm2 | inactive: -0.553
GGAAGUGGACCUGAGUGACTT against Taf6 | inactive: 0.0803
CCUCACUGUUUUACACCUUTT against Olfr1152 | inactive: -0.188

Sequence | z-score
GGAAACUGAAGGAGGUACGTT against Ush1c | inactive: -0.485
GGCCGACCAGCUGUAUAAGTT against Pdha2 | inactive: 2.04
GGAAUGCUACAACUCAAAATT against Ptk2 | inactive: 0.648
GGUCACUGUAAAAUGAACCTT against Odf2 | inactive: 0.745
GCCAGUUAGAUGAAUUUCATT against C80879 | inactive: -2.84
GCUGGUAGGAAGUCCAAAATT against 2310008H09Rik | inactive: -1.07
GCUCCUCGUUCCACACAUCTT against Alox12 | inactive: 0.136
GGAAGAUUUACAGAUUCAATT against Lta4h | inactive: 1.63
GGAACACAUGCUAAGCAGATT against 1110032A03Rik | inactive: -0.719
GGCAUUACCAUUGGAUCUGTT against Mgl2 | inactive: -0.973
CCCAAAUUGAAAGGGCAGGTT against LOC271048 | inactive: 0.457
GGGAAUGGCUUGAUUCUGUTT against Olfr609 | inactive: 0.522
CCCUCAGUUGUACCAUCAATT against Olfr298 | inactive: 0.31
CCAACAAUUCUGCCAAGACTT against Arrb2 | inactive: -2.41
GGCUAAGAACUCUAAGAAATT against 4732427B05 | inactive: -2.93
GGAAAUCGAGGACUUAUACTT against Prkwnk4 | inactive: 0.139
GGCAGGCAAAAAGCCUUUUTT against Olfr1022 | inactive: 0.0393
GCAGGUUGAACGACAGCGUTT against 2410012M04Rik | inactive: -0.458
GGUUCACAGAAAUUGAGGUTT against 2810048G17Rik | inactive: -0.246
GCUAUCCUUUCUUGCUGCATT against Tlr12 | inactive: -1.34
GGAAAUACAAAUGAGUUGATT against Txndc9 | inactive: 0.152
GGCCUUUCUCACACUGCAUTT against Fto | inactive: -0.634
GGAAUCUGCAUGGUUUGCCTT against Vgll4 | inactive: 0.656
GGAUCUAAGCCUGUUGUGATT against 6030449J21 | inactive: -0.656
GGAGACGAGGUCAUCAUCATT against Ccbl1 | inactive: 0.326
GGACAACUAGCAGAUGGGATT against L3mbtl2 | inactive: -1.12

Sequence | z-score
GCUGGCUGUUGGAUAAGUGTT against Olfr1112 | inactive: -1.92
GGCGAGACCAUCCAUAUGUTT against Dusp19 | inactive: 0.168
GGGUCAGAAUUUUUGCUUCTT against Olfr328 | inactive: -0.415
GCAUAGCUAACUCAGCAUATT against Map2k2 | inactive: -0.155
GGCCUUUAGUUUAAUCCUATT against Ubxd4 | inactive: 0.533
GCUCAAUUUACAAAAGCCCTT against Pik3c2a | inactive: 0.824
GGAAACUGUUUAGGAAUUGTT against Adpn | inactive: 0.91
GGACAAACACUGUUUAUUCTT against Phf8 | inactive: 0.923
GCAAGGUCAAUCAAUCGUATT against Trar1 | inactive: 0.721
GUGACCACUUUGCCACUUGTT against Olfr1259 | inactive: -0.701
GGCCAAAUUUUCCUUCCAATT against Cast1 | inactive: 0.727
GGUAGAGUCUAACACGUGGTT against Ctsw | inactive: 0.0282
GGGAAAAUCCAGCCAUAGUTT against 4922504M18Rik | inactive: -1.24
GGAUACCUUGCCUUUCUUATT against Bmpr1a | inactive: 0.0591
GGAAAGCGGUAUGGCAUGGTT against Oraov1 | inactive: 0.603
GGUAAAACAGGUUUAGAGATT against Slc1a4 | inactive: 2.03
GCUUAAUGAGGAAAUACCATT against Ptpn12 | inactive: 0.654
GGUGCUCUGAGGAACUCCATT against Olfr1491 | inactive: -0.0168
GCCAAAUGAGUCAGAUACUTT against Ak3l | inactive: 1.46
CGCAAAACCGGGUCAAAUCTT against F9 | inactive: 1.7
GGAGGAGAAGAAGAAGGCCTT against AA407659 | inactive: 0.37
GCCCAAGAGUUGAGAUUCUTT against Kcnj14 | inactive: 0.00246
GGUUUUUCAAUUAAACGGATT against Cd63 | inactive: -0.563
GCUCCAGAUGUUCAGAGCUTT against Fbxo9 | inactive: -0.242
GGUGUUCGACUUUGAGCGCTT against Smad6 | inactive: 1.04
GGGACUUGUCAGGUUUCUATT against BC002216 | inactive: 0.488

Reformatted tab-delimited: part of the list above
Sequence	z-score
GACCUACAAGAAGUUCGGCTT against Nkx2-4	inactive: 1.1
CGAACUAAGCCAAUCUCUGTT against Pcdha2	inactive: -0.561
GCUCAAUUUACAAAAGCCCTT against Pik3c2a	inactive: 0.824
GUGACCACUUUGCCACUUGTT against Olfr1259	inactive: -0.701
GGGACUUGUCAGGUUUCUATT against BC002216	inactive: 0.488

Further results:

Sequence | z-score
GGUCCCUUUUGCUAAAACATT against Gm347 | inactive: 0.529
CAGCUCUCUUGCUCAAACATT against Olfr815 | inactive: 0.811
GGACUCAAGGACAAACAGUTT against 4632417D23 | inactive: 0.575
GGUGGUUUGUGUUACAUUUTT against Ifnar2 | inactive: 0.826
GGCCAGGACCUAAAUACAATT against 4932417I16Rik | inactive: -1.47
GGUUAAAAGCAUCUCUAAGTT against Cd8b | inactive: 0.305
GCAUUUAGAAGAAUCCGCCTT against Hao3 | inactive: -0.285
GCUGUCGUCUCGUAAUAGUTT against BC063749 | inactive: 1.33
CCAGUGUGAUCAAAAACACTT against BC016188 | inactive: -0.257
GGGCUUAAUCCAGGCCUUATT against C030004A17Rik | inactive: 0.0481
GGAGUGUAAGGAAUUUAGCTT against 1700027M21Rik | inactive: 0.484
GGUGAUCCUUAUGCUGUUATT against Bat8 | inactive: 0.653
GCCAGCUACGUUUACGACUTT against Brms1 | inactive: -0.385
GGAUUGAAACAGAUGAGAGTT against Gtf2e1 | inactive: 0.305
GGUGGUUUCAACAAGUUCCTT against Dusp7 | inactive: -0.392
CGAGUGCCAACUUUAGUUUTT against Hrh4 | inactive: -0.455
CCGACCAAGCUCUAUGUGATT against Mrgprh | inactive: -0.668
GGAGUUCCUGGAGAAGAAATT against 2010012F05Rik | inactive: -3.55
GCAAAUACUCAAGUUCAGATT against Cpt1b | inactive: 0.514
GGCCAUUGUUCAGGUGUUUTT against Atp6v1b1 | inactive: 0.215
CGGUUCUAGUUGAAAUUGUTT against Pcdha3 | inactive: -0.125
GGCUUUAUGUAAGCAGAAGTT against Olfr948 | inactive: -1.05
GCCAAUCACAUUCCCAUGCTT against Umps | inactive: 0.677
GCCCAUAACAAAACAUCUATT against Mcpt5 | inactive: 1.1
GGGCAUGUGAAGAUGUGCGTT against Map2k3 | inactive: -0.347
GCUUACAUGACUGCCUUAUTT against Raf1 | inactive: -1.34
